The values below come from PMC7819943, “Rice protein-binding microarrays: a tool to detect cis-acting elements near promoter regions in rice”.

Amino acid sequences for entries named in this document (tags omitted).
UniProt Q0JBA9, entry or part of it: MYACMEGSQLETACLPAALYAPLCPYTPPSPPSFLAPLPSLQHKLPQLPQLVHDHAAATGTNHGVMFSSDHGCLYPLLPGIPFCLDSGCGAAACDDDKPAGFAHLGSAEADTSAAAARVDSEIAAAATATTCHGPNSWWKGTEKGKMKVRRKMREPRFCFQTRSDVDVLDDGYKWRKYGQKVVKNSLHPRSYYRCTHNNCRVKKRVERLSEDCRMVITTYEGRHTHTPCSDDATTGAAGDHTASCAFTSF

The other results are listed elsewhere or left out.

The target in this assay is OsWRKY34 (Oryza sativa, UniProt Q0JBA9 1-250). In words: protein-binding microarray (RPBM); PBS, 2% BSA, 51.3 ng/ul salmon testes DNA, 50 uM zinc acetate, 200 nM TF, 25 C, 1 h; high values mean tight binding. The settings on record: protein: recombinant; tags: N-terminal polyhistidine and DsRed monomer fusion (pET32a); label: CyDye5-dUTP incorporated in the synthesized complementary strand; 3' TTTTT single-stranded linker to array surface; dsDNA, one strand shown. In short, it runs like this: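 Binding signal here means per-feature fluorescence intensity in arbitrary units. The values were read on an Axon 4000B scanner after a custom Agilent array, double-stranded by primer extension with Cy5-dUTP, was incubated with 200 nM protein at 25 °C for 1 h in PBS with 2% BSA, salmon testes DNA and 50 µM zinc acetate, then washed. The proteins were transcription factors with an N-terminal polyhistidine tag and DsRed, expressed in E. coli BL21-CodonPlus and purified on Ni–NTA.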
With “GCCTGCCGCCGCTCCCACCGCCCACCACCCGCCACCCGCCCGGAGTCACCTAGTGCAG”, the binding signal is 8810 fluorescence intensity (a.u.).
To “TTCTTTCTGTTTTGCCCTTACCTCAGCTCTGCTTGTGAATCGGAGTCACCTAGTGCAG” belongs 8810 fluorescence intensity (a.u.).
Then “TTCCTAGGCTGTGTTTAGTTCAGTGCAAAGTTTGGATTTTCGGAGTCACCTAGTGCAG”, with 8080 fluorescence intensity (a.u.); and “CCGCCGCCACCGCCGCCGCCGCCGCCGCTTCACTCGCCGGCGGAGTCACCTAGTGCAG”, with 10300 fluorescence intensity (a.u.); and “TGTCTCTTTCTCTCTGTTGGGCCATTCTAGCTCATCTCCTCGGAGTCACCTAGTGCAG”, with 9970 fluorescence intensity (a.u.).
Then “TCGATTTCAGATTGTTTTTTTTTTCTGTGCGTCGTGATTTCGGAGTCACCTAGTGCAG”, with 10700 fluorescence intensity (a.u.).
On to “ATCAAACCTACACACACTAAGCTAACACACATTTACAGTCCGGAGTCACCTAGTGCAG”, for which the binding signal is 8920 fluorescence intensity (a.u.).
For the sequence “TAGGGATGGGGAAGAGGAGTCAGCGCAGTCGCCGCGGATCCGGAGTCACCTAGTGCAG”, the binding signal is 8360 fluorescence intensity (a.u.).
Then “AACCCTGGGTTTCCGTGTCCAACTTTGACTGTCCATCTTACGGAGTCACCTAGTGCAG”, with 9940 fluorescence intensity (a.u.); and “AACATTTATCTTCTTTCTTTTCTATATGGCATATAAGGGTCGGAGTCACCTAGTGCAG”, with 9670 fluorescence intensity (a.u.).
Then “TTGTGTTTGTGTGTGTGTTTGTGCTGATTTGGGCATTGGTCGGAGTCACCTAGTGCAG”, with 8490 fluorescence intensity (a.u.).
Then “TTTCCCTTCAGTTTCAGTTGTGTTTGTGTCGTGTACAGGCCGGAGTCACCTAGTGCAG”, with 11400 fluorescence intensity (a.u.).
Consider “ATTCAGTTTTATCTAATTTTTCTCATTTTATCTGATTTTTCGGAGTCACCTAGTGCAG”, for which the binding signal is 10200 fluorescence intensity (a.u.).
In the case of “GACTCCATATATCCTTTCTTGGTAGCTCACCCATTGCCATCGGAGTCACCTAGTGCAG”, the binding signal was 8380 fluorescence intensity (a.u.).
On to “TTCTTGTACAAGGTTGGTTCTTTAACTTTCACTACACCATCGGAGTCACCTAGTGCAG”, for which the binding signal was 10200 fluorescence intensity (a.u.).
As to “CAACTTATCTCTTTACGACTAATTTTTTTACACTGTTAGTCGGAGTCACCTAGTGCAG”, the binding signal is 10500 fluorescence intensity (a.u.).
With “GTGTGTGTGTCTGTGACAAGTTCCAAGCTAGCAACAACAACGGAGTCACCTAGTGCAG”, the binding signal is 9030 fluorescence intensity (a.u.).
As to “AAATCCACATTCTCTGGTCCCACACCTGTCACCGTCCCATCGGAGTCACCTAGTGCAG”, the binding signal is 9090 fluorescence intensity (a.u.).
Then “AATCTACGCTTCAACATTGGGGAATCAGGGGTTTTCTCTCCGGAGTCACCTAGTGCAG”, with 8650 fluorescence intensity (a.u.).
Regarding “CGGTGGTGGATTGAGGCGGTGGGATTCGGCGGTGTTTAAACGGAGTCACCTAGTGCAG”, the binding signal was 13400 fluorescence intensity (a.u.).
To “TCTCTCTCTCTCTCTCTCTCTCTCTCTCTCTCTCTCCGGCCGGAGTCACCTAGTGCAG” belongs 8470 fluorescence intensity (a.u.); to “TCCCGCTTCTCCTCCGTCGCTCTCCGCCGCCGCCGCCACCCGGAGTCACCTAGTGCAG”, 10200 fluorescence intensity (a.u.).
To “AACACCACGGCACAGACAACATTCTTCATGTTTACAACAACGGAGTCACCTAGTGCAG” belongs 8910 fluorescence intensity (a.u.); to “GCGTCAGTAACAAATCACCGCTCCGTATCTAACCATTCATCGGAGTCACCTAGTGCAG”, 9080 fluorescence intensity (a.u.); to “TCGTATACACCCTCACCTATAGTGCACATACAAAATAATTCGGAGTCACCTAGTGCAG”, 8190 fluorescence intensity (a.u.).
For the sequence “AGCACGAGGTATTAATTTCATGCTACAGTCAAAATATTTTCGGAGTCACCTAGTGCAG”, the binding signal was 8700 fluorescence intensity (a.u.).
Then “AGTACAGCTAGCCGCGGGTCCCTATCCATGCCATCGTAAACGGAGTCACCTAGTGCAG”, with 8870 fluorescence intensity (a.u.); and “AAAAACCCTATTAGGGTTGGGTTTGTTCTCCATTTTATACCGGAGTCACCTAGTGCAG”, with 10300 fluorescence intensity (a.u.).
To “CATATCACATCAATTGTTTTTAGCCTTTAGATGATTAATCCGGAGTCACCTAGTGCAG” belongs 8120 fluorescence intensity (a.u.); to “TTTTGTTGACATTTTCTTTCTTTCCTTGGCATAAGCCAGTCGGAGTCACCTAGTGCAG”, 10200 fluorescence intensity (a.u.); to “GTCGCTGTCATTTGGTTGTTTCATTTGTAATATTAGTTGTCGGAGTCACCTAGTGCAG”, 11400 fluorescence intensity (a.u.).
Turning to “GCAAAATAGGTTCTATATTTCACTGTAAATATGTTTTCCACGGAGTCACCTAGTGCAG”, the binding signal is 8420 fluorescence intensity (a.u.).
Regarding “TCTCGCACTGGTTAGTTGCTTCCTTGATGTGCTGTGTCCTCGGAGTCACCTAGTGCAG”, the binding signal is 9830 fluorescence intensity (a.u.).
Then “GGCCCATGCGACGCCACGCCAGGTCCCGCTCATCTCTTCACGGAGTCACCTAGTGCAG”, with 9140 fluorescence intensity (a.u.); and “CCAATGTTTTCTTCTCGTTCCTACCTGCGTCGACGTGTGACGGAGTCACCTAGTGCAG”, with 8940 fluorescence intensity (a.u.); and “CATCAAAATATTTTTTTCTTGGGCCTTTTTCATCAAAATACGGAGTCACCTAGTGCAG”, with 9010 fluorescence intensity (a.u.).
On to “CCTCCGCCGCGCGCCCCGACCGCTCCGCCGCCTTCGCCGCCGGAGTCACCTAGTGCAG”, for which the binding signal was 10400 fluorescence intensity (a.u.).
Take “ACCATGCATTTGTGTTGCCTCTGTCCCTAATGTAAGCATCCGGAGTCACCTAGTGCAG”: the binding signal is 9290 ± 407 fluorescence intensity (a.u.).
Then “TGTCCGCTCAATTGCTTTCCTTTCATTTCGTGCGCGCGAGCGGAGTCACCTAGTGCAG”, with 11200 fluorescence intensity (a.u.); and “ACTAGCTTCATTGTGGGGTTTTAGAGTTCCCTGGTAGGCACGGAGTCACCTAGTGCAG”, with 8180 fluorescence intensity (a.u.); and “GGATTTCTGCTTCTGTTCGATCTCCGCTGCGAAGACGCAACGGAGTCACCTAGTGCAG”, with 8440 fluorescence intensity (a.u.).
With “ATTTTCTGTGAGCAATCTATTTATAATTTTTAAGTGCAACCGGAGTCACCTAGTGCAG”, the binding signal is 8180 fluorescence intensity (a.u.).
